Test results published in US20260083129A1, “PYRAZOLE AMIDE INSECTICIDES” (FMC CORPORATION, priority 2022, published 2026).
Some results were stated once for a whole list of compounds, not compound by compound.

What was measured:
[1] = tested on: Diamond Back Moth (Plutella xylostella L.); assay: Test A: control of Diamond Back Moth on sprayed mustard plant; assay type: in vivo; conditions: assessed after six days, neonate larvae
[2] = tested on: fall armyworm (Spodoptera frugiperda (J. E. Smith)); assay: Test B: control of fall armyworm on sprayed corn (maize) plant; assay type: in vivo; conditions: sprayed at 250 ppm; assessed after 6 days; one-day-old larvae

Measured: control efficacy: feeding damage

CC(c1c([N+](=O)[O-])cnn1-c1ncccn1)N(C)C(=O)c1cc(C(F)(F)F)cc(C(F)(F)F)c1 (stereo not shown) [Compound 96]
≤ 20%: [1]; sprayed at 10 ppm | [1]; sprayed at 50 ppm | [1]; sprayed at 250 ppm | [2]
